Assay results published in the supplement of paper PMC12819154, “High-throughput peptide-centric local stability assay extends protein–ligand identification to membrane proteins, tissues and bacteria” (Nature Structural & Molecular Biology, 2025).
This is a selection; strong and weak results do not stand in their true shares. Most entries show no effect beyond the scatter of the controls.

Sequences of proteins named here, by UniProt entry; tags and fusion partners are left off. A change or cut given only in a name is not applied to a line headed by its entry.
UniProt P07026: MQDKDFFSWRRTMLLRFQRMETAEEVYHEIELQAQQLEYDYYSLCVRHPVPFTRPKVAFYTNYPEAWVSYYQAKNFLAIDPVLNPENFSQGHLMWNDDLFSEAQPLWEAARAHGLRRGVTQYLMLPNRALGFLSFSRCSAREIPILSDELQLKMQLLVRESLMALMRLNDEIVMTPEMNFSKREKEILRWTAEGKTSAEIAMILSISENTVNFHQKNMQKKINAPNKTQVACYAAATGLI
UniProt P09163: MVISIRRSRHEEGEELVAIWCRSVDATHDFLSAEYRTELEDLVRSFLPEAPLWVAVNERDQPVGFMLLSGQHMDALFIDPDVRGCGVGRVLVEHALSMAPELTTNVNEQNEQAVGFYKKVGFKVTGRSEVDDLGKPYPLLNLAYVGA

compound: Nc1ncnc2c1ncn2[C@@H]1O[C@H](COP(=O)(O)OP(=O)(O)OP(=O)(O)O)[C@@H](O)[C@H]1O [adenosine 5'-triphosphate]; assay: log2 fold change of tryptic peptide abundance, ligand vs vehicle (limited proteolysis) (log2 ratio); higher = more trypsin-susceptible (destabilized); conditions: ligand concentration: 5 mM; sample: E. coli desalted lysate; replicate design: treated before aliquoting
Method: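 HT-PELSA: desalted E. coli K-12 BW25113 lysate (with 12 mM MgCl2) incubated with 5 mM ATP (pH 7) or water for 30 min at 25 C, then a 4 min trypsin pulse at 22 C. Peptides were quantified by DIA-MS (4 replicates). Value is the peptide log2 fold change (treated/control); negative = stabilized. Scale: negative = ligand-stabilized region.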
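Further: lysate desalted by size exclusion to strip endogenous ATP, peptide intensities built from DIA-NN precursor signals, and peptides missing any value discarded before comparison.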

Target	log2 fold change
UniProt P07026 (peptide sequence: ALGFLSFSR, peptide start residue: 129)	0.311
UniProt P09163 (peptide sequence: SRHEEGEELVAIWCR, peptide start residue: 8)	0.286
